Experimental data: article PMC3486646
Results are given in words; binding and its absence hold for the method and conditions named. In cells and extracts the contact can be indirect. Some binding calls cover weakened binding; strength is not graded here.

Protein sequences, listed by entry. Tags and fused reporters are not part of them. Lines headed by an entry give the natural chain unless they say otherwise; changes in a name come on top. Residues count along the entry.
UniProt O14980: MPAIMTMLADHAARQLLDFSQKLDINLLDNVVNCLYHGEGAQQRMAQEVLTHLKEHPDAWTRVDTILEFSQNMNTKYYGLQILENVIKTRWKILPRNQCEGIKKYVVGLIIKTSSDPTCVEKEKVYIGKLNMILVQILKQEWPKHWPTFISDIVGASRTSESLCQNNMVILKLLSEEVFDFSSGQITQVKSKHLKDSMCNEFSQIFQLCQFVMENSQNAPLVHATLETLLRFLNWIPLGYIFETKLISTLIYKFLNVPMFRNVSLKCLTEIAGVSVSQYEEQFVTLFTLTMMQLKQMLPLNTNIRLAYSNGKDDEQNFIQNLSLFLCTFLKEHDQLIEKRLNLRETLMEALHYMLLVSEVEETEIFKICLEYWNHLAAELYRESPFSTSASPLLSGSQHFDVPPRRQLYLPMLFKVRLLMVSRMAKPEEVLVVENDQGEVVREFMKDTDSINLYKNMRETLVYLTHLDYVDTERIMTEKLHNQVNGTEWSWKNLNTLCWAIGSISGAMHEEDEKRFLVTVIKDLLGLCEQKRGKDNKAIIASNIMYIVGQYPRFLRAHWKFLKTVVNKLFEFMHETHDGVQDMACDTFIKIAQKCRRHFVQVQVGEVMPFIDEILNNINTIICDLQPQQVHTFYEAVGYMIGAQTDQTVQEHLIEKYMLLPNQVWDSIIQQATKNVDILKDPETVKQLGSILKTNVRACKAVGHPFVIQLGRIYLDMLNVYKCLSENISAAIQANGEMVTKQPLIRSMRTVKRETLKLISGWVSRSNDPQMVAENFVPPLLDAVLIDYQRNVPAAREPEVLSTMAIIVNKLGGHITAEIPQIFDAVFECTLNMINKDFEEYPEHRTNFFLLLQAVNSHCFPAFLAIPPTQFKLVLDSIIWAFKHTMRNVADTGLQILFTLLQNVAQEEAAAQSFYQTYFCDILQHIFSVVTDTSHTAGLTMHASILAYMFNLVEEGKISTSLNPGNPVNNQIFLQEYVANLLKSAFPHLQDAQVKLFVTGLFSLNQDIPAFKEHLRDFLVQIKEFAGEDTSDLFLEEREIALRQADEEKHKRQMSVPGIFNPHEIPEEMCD
UniProt O95793: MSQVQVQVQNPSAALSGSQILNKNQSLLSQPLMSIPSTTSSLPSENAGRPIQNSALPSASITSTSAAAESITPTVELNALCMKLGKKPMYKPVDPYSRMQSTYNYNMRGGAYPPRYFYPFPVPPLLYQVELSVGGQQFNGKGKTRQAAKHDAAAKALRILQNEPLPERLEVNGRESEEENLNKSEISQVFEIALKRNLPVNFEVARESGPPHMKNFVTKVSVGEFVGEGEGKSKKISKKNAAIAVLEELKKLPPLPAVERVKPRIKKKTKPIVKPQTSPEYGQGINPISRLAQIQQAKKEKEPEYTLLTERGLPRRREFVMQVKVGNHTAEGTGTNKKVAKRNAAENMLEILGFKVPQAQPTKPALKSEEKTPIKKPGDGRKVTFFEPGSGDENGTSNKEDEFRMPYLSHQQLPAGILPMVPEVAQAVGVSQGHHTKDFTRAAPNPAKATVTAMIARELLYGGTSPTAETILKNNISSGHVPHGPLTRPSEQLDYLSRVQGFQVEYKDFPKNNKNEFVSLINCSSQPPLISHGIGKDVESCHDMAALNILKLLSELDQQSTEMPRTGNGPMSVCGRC
Staufen1-TAP: residues 82-577 of O95793
UniProt P11940: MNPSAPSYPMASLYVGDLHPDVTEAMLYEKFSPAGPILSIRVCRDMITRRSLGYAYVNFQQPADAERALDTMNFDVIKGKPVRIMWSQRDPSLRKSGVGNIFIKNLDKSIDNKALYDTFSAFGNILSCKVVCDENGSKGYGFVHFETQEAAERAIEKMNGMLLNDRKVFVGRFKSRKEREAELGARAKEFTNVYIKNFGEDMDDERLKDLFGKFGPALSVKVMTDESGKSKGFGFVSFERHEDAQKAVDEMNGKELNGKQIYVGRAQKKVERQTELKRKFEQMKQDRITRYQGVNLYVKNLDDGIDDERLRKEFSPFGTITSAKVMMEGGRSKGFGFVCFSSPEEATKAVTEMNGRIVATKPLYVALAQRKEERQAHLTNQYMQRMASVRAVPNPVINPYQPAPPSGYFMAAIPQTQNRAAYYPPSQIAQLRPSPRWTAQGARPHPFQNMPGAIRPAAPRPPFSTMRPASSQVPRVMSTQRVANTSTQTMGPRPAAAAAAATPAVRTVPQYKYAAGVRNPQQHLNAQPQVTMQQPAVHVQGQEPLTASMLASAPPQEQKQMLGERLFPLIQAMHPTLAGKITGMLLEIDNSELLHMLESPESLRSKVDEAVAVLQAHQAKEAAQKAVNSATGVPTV

Columns and labels:
[1] = target: chromosomal regional maintenance protein 1 (human (endogenous in 293T and HeLa)) (UniProt O14980); assay: co-IP; CRM1, ABCE1, TDP-43, AUF1 or IMP1-VenusC (anti-GFP) immunoprecipitated from HeLa cell lysates; equal amounts of lysates treated with or without RnaseA for 30 min on ice before IP
Staufen1-TAP = Staufen1-TAP (UniProt O95793); assay: pull-down; tandem affinity purification of Staufen1-TAP (IgG Sepharose, TEV cleavage, Calmodulin-affinity resin, EGTA elution) from lysates of stable 293T or Jurkat T cells, without or with HIV-1 (pNL4-3); eluates western blotted

| Substance | binding [1] | binding (Staufen1-TAP) |
| --- | --- | --- |
| Staufen1 (in the HeLa lysates used for immunoprecipitation) (from UniProt O95793 1-577) | binds | – |
| endogenous Staufen1^63 (63 kDa) (from UniProt O95793 1-577) | – | binds |
| endogenous Staufen1^(55 kDa) (from UniProt O95793-2 1-496) | – | binds |
| poly-A binding protein (from UniProt P11940 1-636) | – | binds |
